The results in this text go back to paper PMC11020354.

Protein sequences, listed by entry. Tags and fused reporters are not part of them.
UniProt P10111: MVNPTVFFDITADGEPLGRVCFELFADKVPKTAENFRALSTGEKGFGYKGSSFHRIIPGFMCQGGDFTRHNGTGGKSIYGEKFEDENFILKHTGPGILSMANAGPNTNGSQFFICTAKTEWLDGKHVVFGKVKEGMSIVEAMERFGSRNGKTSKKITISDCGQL
UniProt F1M707: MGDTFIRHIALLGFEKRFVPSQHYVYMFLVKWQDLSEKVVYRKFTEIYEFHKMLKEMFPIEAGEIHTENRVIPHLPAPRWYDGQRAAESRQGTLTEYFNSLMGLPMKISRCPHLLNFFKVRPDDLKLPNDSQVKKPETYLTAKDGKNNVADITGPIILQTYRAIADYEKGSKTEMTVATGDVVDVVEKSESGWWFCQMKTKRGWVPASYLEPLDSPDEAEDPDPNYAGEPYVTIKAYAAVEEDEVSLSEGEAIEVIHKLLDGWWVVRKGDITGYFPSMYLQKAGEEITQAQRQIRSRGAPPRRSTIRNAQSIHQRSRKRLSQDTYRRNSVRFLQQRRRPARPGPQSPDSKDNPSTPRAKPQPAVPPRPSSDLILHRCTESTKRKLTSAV

Results are given in words; binding and its absence hold for the method and conditions named. Binding seen in cells or lysates may run through a third protein. Some results given as binding are weak or reduced against the parent protein; the word gives no strength.

For the assay, the target named is Cyclophilin A (rat (endogenous in H9c2)) (UniProt P10111). The assay can be described thus: co-IP; anti-CyPA antibody on Protein A + G magnetic beads, H9c2 lysate incubated overnight at 4 °C, Western blot for p47phox; cells with or without PA treatment and with or without circ_005077 overexpression.

As to p47PHOX (from UniProt F1M707 1-389), the binding result is listed as “binds”.
